Measurements as given in paper PMC11984960.
These are yes or no findings as the source states them, for the method shown. In cells and extracts the contact can be indirect. A yes stands for co-enrichment or nearness to the bait. Other partners may have been found. No binding means not detected with the bait.

Sequences of proteins named here, by UniProt entry; tags and fusion partners are left off.
UniProt Q96ST8: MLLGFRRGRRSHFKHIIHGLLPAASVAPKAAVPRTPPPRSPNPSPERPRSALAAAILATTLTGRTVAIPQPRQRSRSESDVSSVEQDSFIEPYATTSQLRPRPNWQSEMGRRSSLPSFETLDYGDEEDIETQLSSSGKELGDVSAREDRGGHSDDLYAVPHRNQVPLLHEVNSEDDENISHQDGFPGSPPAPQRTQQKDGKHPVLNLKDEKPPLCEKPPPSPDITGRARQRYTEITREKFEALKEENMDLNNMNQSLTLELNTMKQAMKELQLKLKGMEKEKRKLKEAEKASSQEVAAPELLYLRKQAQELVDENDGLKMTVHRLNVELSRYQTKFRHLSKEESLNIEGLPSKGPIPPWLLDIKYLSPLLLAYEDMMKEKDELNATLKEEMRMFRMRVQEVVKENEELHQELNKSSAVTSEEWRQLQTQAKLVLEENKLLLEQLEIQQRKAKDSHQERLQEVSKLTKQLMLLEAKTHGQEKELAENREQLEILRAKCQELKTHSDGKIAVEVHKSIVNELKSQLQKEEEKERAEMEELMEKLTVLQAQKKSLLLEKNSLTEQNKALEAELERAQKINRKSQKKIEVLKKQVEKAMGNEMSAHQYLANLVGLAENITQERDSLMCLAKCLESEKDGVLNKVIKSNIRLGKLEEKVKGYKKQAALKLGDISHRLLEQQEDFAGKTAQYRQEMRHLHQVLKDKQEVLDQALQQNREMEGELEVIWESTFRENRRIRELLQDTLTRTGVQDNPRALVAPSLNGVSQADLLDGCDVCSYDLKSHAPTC
UniProt Q9HBI5: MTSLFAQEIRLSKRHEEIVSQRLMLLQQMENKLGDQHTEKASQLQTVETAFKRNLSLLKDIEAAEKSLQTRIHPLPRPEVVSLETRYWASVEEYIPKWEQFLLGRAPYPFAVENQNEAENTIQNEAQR
UniProt A6NIH7: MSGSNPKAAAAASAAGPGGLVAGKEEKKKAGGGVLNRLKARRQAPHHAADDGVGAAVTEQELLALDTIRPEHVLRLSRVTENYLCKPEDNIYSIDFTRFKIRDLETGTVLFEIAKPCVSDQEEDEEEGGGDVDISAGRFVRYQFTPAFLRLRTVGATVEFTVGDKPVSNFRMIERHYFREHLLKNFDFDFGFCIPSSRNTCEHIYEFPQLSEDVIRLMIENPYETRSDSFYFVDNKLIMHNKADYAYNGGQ

Biological target: N-terminally LAP-tagged CEP89 (Centrosomal Protein 89), full length (human) (UniProt Q96ST8)
Assay: affinity purification with mass spectrometry; tandem affinity purification of N-terminally LAP-tagged CEP89 from confluent RPE-FRT9 cell lysate: GFP antibody beads, TEV cleavage, S-protein agarose; washes with 200 mM KCl, 50 mM HEPES-KOH pH 7.4, 0.05% NP-40; eluate analysed by silver staining and LC-MS/MS

binding	Substance
binds	CEP15, endogenous (from UniProt Q9HBI5 1-128)
no binding	UNC119B, endogenous (from UniProt A6NIH7 1-251)
